Laboratory results reported in the supplement of paper PMC11438910.
Some of the results follow. The signal is at background level for most entries.

How the values were obtained:
Assay in all cases: fluorescence intensity of antibody binding to polysaccharide-coupled beads; higher = stronger binding
[1] = biological target: pneumococcal polysaccharide Pn41A
[2] = biological target: pneumococcal polysaccharide Pn41F
[3] = biological target: pneumococcal polysaccharide Pn42
[4] = biological target: pneumococcal polysaccharide Pn43
[5] = biological target: pneumococcal polysaccharide Pn44
[6] = biological target: pneumococcal polysaccharide Pn45
[7] = biological target: pneumococcal polysaccharide Pn46
[8] = biological target: pneumococcal polysaccharide Pn47A
[9] = biological target: pneumococcal polysaccharide Pn47F
[10] = biological target: pneumococcal polysaccharide Pn48
[11] = biological target: pneumococcal polysaccharide Pn5
[12] = biological target: pneumococcal polysaccharide Pn6A
[13] = biological target: pneumococcal polysaccharide Pn6B
[14] = biological target: pneumococcal polysaccharide Pn6C
[15] = biological target: pneumococcal polysaccharide Pn6D
[16] = biological target: pneumococcal polysaccharide Pn7A
[17] = biological target: pneumococcal polysaccharide Pn7B
[18] = biological target: pneumococcal polysaccharide Pn7C
[19] = biological target: pneumococcal polysaccharide Pn7F
[20] = biological target: pneumococcal polysaccharide Pn8
[21] = biological target: pneumococcal polysaccharide Pn9A
[22] = biological target: pneumococcal polysaccharide Pn9L
[23] = biological target: pneumococcal polysaccharide Pn9N
[24] = antibody concentration 2.8593 ng/mL
[25] = antibody concentration 15.2894 ng/mL
[26] = antibody concentration 81.7561 ng/mL
[27] = antibody concentration 437.17 ng/mL
[28] = antibody concentration 2337.65 ng/mL
[29] = antibody concentration 12500 ng/mL
[30] = antibody concentration 0.1 ng/mL
[31] = antibody concentration 0.534724 ng/mL

B1: 4-80.2 (protein)
chain 1: QVQLQESGPGLVKPSETLSLTCAVSGDSFSSYWWSWIRQPPGKGLEWIGEINGNVGSTNYNPSLKSRVTISKDASKNQFSLKLSSVTAADTAVYYCARYKEYWGQGVLVTVSS
chain 2: DVVMTQSPLSLPITPGQPASISCRSSQSLVHSNGNTYLSWYQQKPGQPPRRLIYEVSNRDSGVPDRFSGSGAGTDFTLKISRVEAEDVGVYYCGQGTHLPYSFGQGTKVEIK
[1]; [24]
  fluorescence intensity: 23 MFI
[1]; [25]
  fluorescence intensity: 23.5 MFI
[1]; [26]
  fluorescence intensity: 24.2 MFI
[1]; [27]
  fluorescence intensity: 23.5 MFI
[1]; [28]
  fluorescence intensity: 24.5 MFI
[1]; [29]
  fluorescence intensity: 28.2 MFI
[2]; [30]
  fluorescence intensity: 13.5 MFI
[2]; [31]
  fluorescence intensity: 13 MFI
[2]; [24]
  fluorescence intensity: 12.5 MFI
[2]; [25]
  fluorescence intensity: 14 MFI
[2]; [26]
  fluorescence intensity: 12.5 MFI
[2]; [27]
  fluorescence intensity: 13.5 MFI
[2]; [28]
  fluorescence intensity: 14.5 MFI
[2]; [29]
  fluorescence intensity: 17.5 MFI
[3]; [30]
  fluorescence intensity: 13 MFI
[3]; [31]
  fluorescence intensity: 12.5 MFI
[3]; [24]
  fluorescence intensity: 12 MFI
[3]; [25]
  fluorescence intensity: 11 MFI
[3]; [26]
  fluorescence intensity: 11.8 MFI
[3]; [27]
  fluorescence intensity: 12 MFI
[3]; [28]
  fluorescence intensity: 14.5 MFI
[3]; [29]
  fluorescence intensity: 19 MFI
[4]; [30]
  fluorescence intensity: 16.8 MFI
[4]; [31]
  fluorescence intensity: 16.5 MFI
[4]; [24]
  fluorescence intensity: 17.2 MFI
[4]; [25]
  fluorescence intensity: 16.8 MFI
[4]; [26]
  fluorescence intensity: 16.2 MFI
[4]; [27]
  fluorescence intensity: 17 MFI
[4]; [28]
  fluorescence intensity: 20 MFI
[4]; [29]
  fluorescence intensity: 45 MFI
[5]; [30]
  fluorescence intensity: 25.8 MFI
[5]; [31]
  fluorescence intensity: 25.5 MFI
[5]; [24]
  fluorescence intensity: 26 MFI
[5]; [25]
  fluorescence intensity: 24.8 MFI
[5]; [26]
  fluorescence intensity: 24.5 MFI
[5]; [27]
  fluorescence intensity: 26 MFI
[5]; [28]
  fluorescence intensity: 25 MFI
[5]; [29]
  fluorescence intensity: 15.5 MFI
[6]; [30]
  fluorescence intensity: 11.5 MFI
[6]; [31]
  fluorescence intensity: 10.5 MFI
[6]; [24]
  fluorescence intensity: 11 MFI
[6]; [25]
  fluorescence intensity: 10 MFI
[6]; [26]
  fluorescence intensity: 11 MFI
[6]; [27]
  fluorescence intensity: 10.5 MFI
[6]; [28]
  fluorescence intensity: 11 MFI
[6]; [29]
  fluorescence intensity: 14 MFI
[7]; [30]
  fluorescence intensity: 24.5 MFI
[7]; [31]
  fluorescence intensity: 23.5 MFI
[7]; [24]
  fluorescence intensity: 25 MFI
[7]; [25]
  fluorescence intensity: 23.8 MFI
[7]; [26]
  fluorescence intensity: 22.5 MFI
[7]; [27]
  fluorescence intensity: 24 MFI
[7]; [28]
  fluorescence intensity: 25.5 MFI
[7]; [29]
  fluorescence intensity: 37 MFI
[8]; [30]
  fluorescence intensity: 16 MFI
[8]; [31]
  fluorescence intensity: 16.5 MFI
[8]; [24]
  fluorescence intensity: 16.5 MFI
[8]; [25]
  fluorescence intensity: 16 MFI
[8]; [26]
  fluorescence intensity: 16 MFI
[8]; [27]
  fluorescence intensity: 17 MFI
[8]; [28]
  fluorescence intensity: 17.5 MFI
[8]; [29]
  fluorescence intensity: 21 MFI
[9]; [30]
  fluorescence intensity: 12.5 MFI
[9]; [31]
  fluorescence intensity: 12 MFI
[9]; [24]
  fluorescence intensity: 12.5 MFI
[9]; [25]
  fluorescence intensity: 12 MFI
[9]; [26]
  fluorescence intensity: 12.5 MFI
[9]; [27]
  fluorescence intensity: 12.2 MFI
[9]; [28]
  fluorescence intensity: 13 MFI
[9]; [29]
  fluorescence intensity: 23 MFI
[10]; [30]
  fluorescence intensity: 22.5 MFI
[10]; [31]
  fluorescence intensity: 22 MFI
[10]; [24]
  fluorescence intensity: 21.5 MFI
[10]; [25]
  fluorescence intensity: 21.8 MFI
[10]; [26]
  fluorescence intensity: 21.8 MFI
[10]; [27]
  fluorescence intensity: 21 MFI
[10]; [28]
  fluorescence intensity: 24.5 MFI
[10]; [29]
  fluorescence intensity: 32 MFI
[11]; [30]
  fluorescence intensity: 10 MFI
[11]; [31]
  fluorescence intensity: 9 MFI
[11]; [24]
  fluorescence intensity: 10 MFI
[11]; [25]
  fluorescence intensity: 9 MFI
[11]; [26]
  fluorescence intensity: 9.5 MFI
[11]; [27]
  fluorescence intensity: 9.5 MFI
[11]; [28]
  fluorescence intensity: 10.5 MFI
[11]; [29]
  fluorescence intensity: 22 MFI
[12]; [30]
  fluorescence intensity: 23.5 MFI
[12]; [31]
  fluorescence intensity: 21.8 MFI
[12]; [24]
  fluorescence intensity: 21.5 MFI
[12]; [25]
  fluorescence intensity: 20.5 MFI
[12]; [26]
  fluorescence intensity: 21.8 MFI
[12]; [27]
  fluorescence intensity: 22 MFI
[12]; [28]
  fluorescence intensity: 25 MFI
[12]; [29]
  fluorescence intensity: 27.5 MFI
[13]; [30]
  fluorescence intensity: 19.5 MFI
[13]; [31]
  fluorescence intensity: 20 MFI
[13]; [24]
  fluorescence intensity: 19 MFI
[13]; [25]
  fluorescence intensity: 20.8 MFI
[13]; [26]
  fluorescence intensity: 19.8 MFI
[13]; [27]
  fluorescence intensity: 21 MFI
[13]; [28]
  fluorescence intensity: 21 MFI
[13]; [29]
  fluorescence intensity: 29 MFI
[14]; [30]
  fluorescence intensity: 15.8 MFI
[14]; [31]
  fluorescence intensity: 15.5 MFI
[14]; [24]
  fluorescence intensity: 20.2 MFI
[14]; [25]
  fluorescence intensity: 17.5 MFI
[14]; [26]
  fluorescence intensity: 14.8 MFI
[14]; [27]
  fluorescence intensity: 20.5 MFI
[14]; [28]
  fluorescence intensity: 24.5 MFI
[14]; [29]
  fluorescence intensity: 27.5 MFI
[15]; [30]
  fluorescence intensity: 19 MFI
[15]; [31]
  fluorescence intensity: 18 MFI
[15]; [24]
  fluorescence intensity: 17.5 MFI
[15]; [25]
  fluorescence intensity: 19.8 MFI
[15]; [26]
  fluorescence intensity: 17.2 MFI
[15]; [27]
  fluorescence intensity: 18 MFI
[15]; [28]
  fluorescence intensity: 20.5 MFI
[15]; [29]
  fluorescence intensity: 21.8 MFI
[16]; [30]
  fluorescence intensity: 23 MFI
[16]; [31]
  fluorescence intensity: 20.5 MFI
[16]; [24]
  fluorescence intensity: 20 MFI
[16]; [25]
  fluorescence intensity: 20 MFI
[16]; [26]
  fluorescence intensity: 21 MFI
[16]; [27]
  fluorescence intensity: 21.5 MFI
[16]; [28]
  fluorescence intensity: 27.5 MFI
[16]; [29]
  fluorescence intensity: 77.5 MFI
[17]; [30]
  fluorescence intensity: 17.2 MFI
[17]; [31]
  fluorescence intensity: 17.5 MFI
[17]; [24]
  fluorescence intensity: 15.5 MFI
[17]; [25]
  fluorescence intensity: 17.5 MFI
[17]; [26]
  fluorescence intensity: 15 MFI
[17]; [27]
  fluorescence intensity: 18 MFI
[17]; [28]
  fluorescence intensity: 19.2 MFI
[17]; [29]
  fluorescence intensity: 30.5 MFI
[18]; [30]
  fluorescence intensity: 18.2 MFI
[18]; [31]
  fluorescence intensity: 15.5 MFI
[18]; [24]
  fluorescence intensity: 20 MFI
[18]; [25]
  fluorescence intensity: 15.5 MFI
[18]; [26]
  fluorescence intensity: 17.5 MFI
[18]; [27]
  fluorescence intensity: 17 MFI
[18]; [28]
  fluorescence intensity: 17 MFI
[18]; [29]
  fluorescence intensity: 27.8 MFI
[19]; [30]
  fluorescence intensity: 16 MFI
[19]; [31]
  fluorescence intensity: 16.5 MFI
[19]; [24]
  fluorescence intensity: 15.5 MFI
[19]; [25]
  fluorescence intensity: 15.5 MFI
[19]; [26]
  fluorescence intensity: 16.5 MFI
[19]; [27]
  fluorescence intensity: 15.5 MFI
[19]; [28]
  fluorescence intensity: 20.2 MFI
[19]; [29]
  fluorescence intensity: 42.5 MFI
[20]; [30]
  fluorescence intensity: 23.5 MFI
[20]; [31]
  fluorescence intensity: 22.5 MFI
[20]; [24]
  fluorescence intensity: 21.5 MFI
[20]; [25]
  fluorescence intensity: 22 MFI
[20]; [26]
  fluorescence intensity: 22.5 MFI
[20]; [27]
  fluorescence intensity: 22.5 MFI
[20]; [28]
  fluorescence intensity: 25 MFI
[20]; [29]
  fluorescence intensity: 37 MFI
[21]; [30]
  fluorescence intensity: 20.8 MFI
[21]; [31]
  fluorescence intensity: 19.5 MFI
[21]; [24]
  fluorescence intensity: 19.5 MFI
[21]; [25]
  fluorescence intensity: 19.5 MFI
[21]; [26]
  fluorescence intensity: 18.5 MFI
[21]; [27]
  fluorescence intensity: 17.5 MFI
[21]; [28]
  fluorescence intensity: 22 MFI
[21]; [29]
  fluorescence intensity: 32 MFI
[22]; [30]
  fluorescence intensity: 18.2 MFI
[22]; [31]
  fluorescence intensity: 17.2 MFI
[22]; [24]
  fluorescence intensity: 16 MFI
[22]; [25]
  fluorescence intensity: 17 MFI
[22]; [26]
  fluorescence intensity: 18.5 MFI
[22]; [27]
  fluorescence intensity: 20 MFI
[22]; [28]
  fluorescence intensity: 18.5 MFI
[22]; [29]
  fluorescence intensity: 28.2 MFI
[23]; [30]
  fluorescence intensity: 18.2 MFI
[23]; [31]
  fluorescence intensity: 16.5 MFI
[23]; [24]
  fluorescence intensity: 16.5 MFI
[23]; [25]
  fluorescence intensity: 17 MFI
[23]; [26]
  fluorescence intensity: 17 MFI
[23]; [27]
  fluorescence intensity: 17.5 MFI
